From paper PMC3169606, “Pub1p C-Terminal RRM Domain Interacts with Tif4631p through a Conserved Region Neighbouring the Pab1p Binding Site” (PLoS ONE, 2011)

Biological target: T1, Pub1p R12 (RRM1-RRM2) (Saccharomyces cerevisiae) (UniProt P32588)
T1 sequence (looked up): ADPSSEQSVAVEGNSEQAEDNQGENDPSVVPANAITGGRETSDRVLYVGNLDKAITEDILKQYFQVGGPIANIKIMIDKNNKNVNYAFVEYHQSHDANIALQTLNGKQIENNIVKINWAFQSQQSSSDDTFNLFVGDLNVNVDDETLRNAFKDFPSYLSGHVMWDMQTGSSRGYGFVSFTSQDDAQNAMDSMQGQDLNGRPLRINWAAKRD
Test: NMR titration
Conditions: fast exchange, negligible shifts at 1:1, 100 µM; 25 mM potassium phosphate pH 7.0 (6.5-7.0 in general NMR methods), 25 mM NaCl, 0.5 mM DTT, 25 C; 100 µM protein, RNA up to 400 µM (R3) or 1:1 (R12); recombinant protein; residues 32-242; protein details: TrxA-6xHis tag removed by TEV

**Q.** AAAAAAAAAAAAAA [A14] was tested. Which pKd did it give?
**A.** The pKd was under 4.00.

pKd: −log10 of the molar value. Tags and fusion partners may be left off the protein sequences shown.
